{"source": "patent US12534696B2", "about": "“Systems and methods for immobilizing extracellular matrix material on organ on chip, multilayer microfluidics microdevices, and three-dimensional cell culture systems” (THE TRUSTEES OF THE UNIVERSITY OF PENNSYLVANIA, priority 2015, dated 2026)", "system": "human lung fibroblasts", "assay": "Serum-induced fibrosis in the biomimetic five-layer lung fibrosis model", "assay_type": "cell-based", "conditions": "2 μM RA (0.2% serum) or 10 μM RA (2% serum)", "note": "At least one structure is not confirmed: it was looked up by name or label, or the drawing left a doubt."}
{"smiles": "CC1=C(/C=C/C(C)=C/C=C/C(C)=C/C(=O)O)C(C)(C)CCC1", "note": "[RA, retinoic acid]", "values": [{"measurement": "effect on serum-induced fibrotic response (FIG. 50)", "value": "inhibited serum-induced fibrotic response"}, {"measurement": "effect on serum-induced fibrotic response (FIG. 50)", "setting": "listed as retinoic acid", "value": "reduction in serum-induce fibrosis"}]}
